Measured values from publication PMC11869656.
These are yes or no findings as the source states them, for the method shown. In cells and extracts the contact can be indirect. A result given as binding can be weak or reduced; the word gives no strength. Tags and fused reporters may be left off the sequences shown.

Key:
[1] = biological target: T1, myc-tagged pig mRNA decapping enzyme 1A (DCP1A), full length (pig) (UniProt I3LHS8); experiment: co-IP; BHK-21 cells cotransfected with myc-tagged DCP1A (or its truncations) and GFP-tagged SVV proteins or HA-tagged autophagy receptors; lysed at 24 hpt; anti-myc magnetic beads overnight; western blotting with anti-myc, anti-HA, anti-GFP
T1 sequence: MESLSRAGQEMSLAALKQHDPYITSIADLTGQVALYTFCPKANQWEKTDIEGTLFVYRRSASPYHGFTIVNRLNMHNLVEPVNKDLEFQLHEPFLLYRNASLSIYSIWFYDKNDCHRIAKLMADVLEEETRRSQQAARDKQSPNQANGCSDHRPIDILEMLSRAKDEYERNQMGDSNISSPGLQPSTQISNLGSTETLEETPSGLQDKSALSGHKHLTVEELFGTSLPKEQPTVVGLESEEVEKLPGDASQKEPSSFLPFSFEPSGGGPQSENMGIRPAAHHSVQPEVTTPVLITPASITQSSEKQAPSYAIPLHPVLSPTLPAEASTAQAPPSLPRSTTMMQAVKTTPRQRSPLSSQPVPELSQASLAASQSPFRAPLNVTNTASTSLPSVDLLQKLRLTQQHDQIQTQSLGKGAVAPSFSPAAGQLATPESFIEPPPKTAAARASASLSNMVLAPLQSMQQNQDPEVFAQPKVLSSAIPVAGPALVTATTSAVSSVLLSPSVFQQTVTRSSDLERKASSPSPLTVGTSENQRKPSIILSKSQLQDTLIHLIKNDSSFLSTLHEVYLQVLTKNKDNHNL

[2] = biological target: T2, myc-tagged DCP1A (344–580) (pig) (UniProt I3LHS8); experiment: as above
T2 sequence: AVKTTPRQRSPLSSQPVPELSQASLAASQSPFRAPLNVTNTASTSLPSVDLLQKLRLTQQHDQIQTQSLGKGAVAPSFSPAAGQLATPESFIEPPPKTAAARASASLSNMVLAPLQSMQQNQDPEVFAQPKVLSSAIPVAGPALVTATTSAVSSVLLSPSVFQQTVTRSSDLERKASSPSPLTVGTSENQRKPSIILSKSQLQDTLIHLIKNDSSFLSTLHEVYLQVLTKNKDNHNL

GFP-tagged SVV 3D RNA-dependent RNA polymerase (Seneca Valley virus) (enzyme)
binding [1]: binds
binding [2]: binds
